This is one part of the list. The main result of the screen is listed elsewhere. These columns were measured beside it and carry no call. Compounds called inactive in the main read-out are mostly missing here. Words in brackets tell the shape of the fitted curve; partial curves, single points and poor fits give uncertain potencies.

As a reminder, the AC50 is the concentration giving half of the maximal activity seen.

The assay in a line: qHTS Assay to Find Inhibitors of Chronic Active B-Cell Receptor Signaling. Particulars: ABC-DLBCL IkBa-CBG/CBR reporter, luminescence ratio (green luciferase fused to IkBa over red control in TMD8 lymphoma cells), 4 h. The gist of the method: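 Doxycycline induced both beetle luciferases in TMD8 lymphoma cells; IKK-driven degradation limits the IkappaBalpha-fused green signal, while red luminescence normalises for cell number and nonspecific effects. Compounds tested up to 46 uM, 4 hrs.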
(In general: Quantitative high-throughput screening tests each substance at several concentrations.)

Where [1] appears, read: measured here: CBR red luminescence, cell number.
[2] abbreviates: measured here: IkBa-CBG green luminescence.

Regarding `O=C(Nc1ccccc1C(=O)O)c1ccc(Br)o1`, the half-maximal activity concentration (AC50) under setting [1] is 1.58 µM [falling, full curve].
For `CC1(C)CC[C@]2(C(=O)O)[C@H](O)C[C@]3(C)C(=CCC4[C@@]5(C)C[C@H](O)[C@H](O)[C@@](C)(CO)C5CC[C@]43C)[C@@H]2C1` (stereo partly drawn), the AC50 is 3.66 µM [falling, partial curve] under setting [1] and 3.66 µM [rising, partial curve, poor fit] under setting [2].
With `CCOC(=O)c1c(NC(=O)Cn2cnc([N+](=O)[O-])n2)sc2c1CCCC2`, the AC50 under setting [1] was 4.61 µM [falling, partial curve, poor fit].
For the compound `COc1ccc(C(=O)NCCC2=CCCCC2)cc1`, the half-maximal activity concentration (AC50) under setting [1] is 29.1 µM [falling, single point].
`CCN(CCCNC(=O)CNC(=O)Cn1cnc2ccccc2c1=O)c1cccc(C)c1`: the AC50 under setting [1] was 9.2 µM [rising, partial curve, poor fit].
Same read-out and setting: in the case of `CC(C)C(=O)Nc1cccc(-c2csc(-c3ccccc3)n2)c1` it was 16.4 µM [falling, partial curve]; in that of `CC(C)CSC1=NSC2=NC(=O)/C(=C\c3cccs3)C(=N)N12`, 4.61 µM [rising, single point].
On to `Nc1nc(SCC(=O)Nc2c(Br)cc([N+](=O)[O-])cc2Br)n[nH]1`, for which the AC50 under setting [1] is 13 µM [rising, partial curve, poor fit].
`CN(CC(=O)Nc1ccc(F)c(F)c1F)C(=O)c1ccc(-n2cncn2)cc1`: the AC50 under setting [1] is 3.66 µM [falling, partial curve, poor fit].
`Cc1ccc(S(=O)(=O)/C(=C/Cl)NC(=O)c2ccccc2)cc1`: the half-maximal activity concentration (AC50) was 5.17 µM [falling, partial curve, poor fit] under setting [1] and 5.17 µM [rising, partial curve] under setting [2].
For `O=c1c2ccccc2nc(SCc2nc3ccccc3s2)n1CCCO`, the half-maximal activity concentration (AC50) under setting [1] is 0.291 µM [rising, full curve].
As for `NS(=O)(=O)c1ccc(-c2ccc(/C=C3\SC(=O)NC3=O)o2)cc1`, under setting [1], the AC50 is 35.5 µM [falling, single point].
In the case of `C/C(CC(=O)Nc1ccc(Cl)cc1C(F)(F)F)=N\NC(N)=S`, the AC50 under setting [2] is 35.5 µM [falling, single point].
In the case of `O=C(/C=C\c1ccc2c(c1)OCO2)NC1(C(=O)Nc2ccc3c(c2)OCCO3)CCCCC1`, under setting [1], the half-maximal activity concentration (AC50) is 29.1 µM [falling, single point].
For `CC(=O)NC1=C(N(C)C2CCS(=O)(=O)C2)C(=O)c2ccccc2C1=O` (stereo not drawn), under setting [1], the AC50 is 7.31 µM [falling, partial curve].
Still for that read-out and setting: in the case of `O=C(Nc1nccs1)c1ccc(F)c(S(=O)(=O)N2CCOCC2)c1` it was 22.4 µM [falling, partial curve, poor fit]; in that of `CC(Oc1ccc(Cl)cc1)C(=O)Nc1nccs1` (stereo not drawn), 14.1 µM [falling, single point].
As for `CC1(C)Cc2nc3oc4c(=S)nc[nH]c4c3cc2CO1`, the AC50 under setting [1] was 6.31 µM [rising, single point].
Turning to `O=C(NN1C(=O)/C(=C/C=C/c2ccccc2)SC1=S)c1ccncc1`, the AC50 under setting [1] is 12.6 µM [falling, single point].
Take `Cc1ccccc1NC(=O)c1sc2nc(N3CCOCC3)c3c(c2c1N)CCCC3`: the AC50 under setting [1] was 17.8 µM [falling, single point].
As for `Cc1ccc(NC(=O)CN(C)C(=O)COC(=O)CNS(=O)(=O)c2ccc(F)c(F)c2F)cc1`, under setting [1], the AC50 was 1.46 µM [rising, full curve, poor fit].
Turning to `COc1ccc(C(=O)NC(=S)N2CCN(c3ccccc3O)CC2)cc1`, under setting [1], the AC50 was 20.6 µM [rising, partial curve, poor fit].
In the case of `O=C(Oc1cccc(NC(=O)c2ccccc2Cl)c1)c1ccc([N+](=O)[O-])cc1`, the concentration at half-maximal activity (AC50) under setting [1] is 5.62 µM [falling, partial curve, poor fit].
The same measure, in the same setting: in the case of `COc1cccc(C(=O)Nc2nc3c(c(=O)[nH]2)CCCC3)c1` it was 0.651 µM [falling, full curve].
Take `CCCn1c(=O)[nH]c(=O)c2c1nc(-c1cc([N+](=O)[O-])ccc1Cl)n2CCOC`: the half-maximal activity concentration (AC50) is 11.2 µM [rising, partial curve] under setting [1] and 14.1 µM [falling, partial curve, poor fit] under setting [2].
With `CN1CCC(OC(=O)c2ccc(Cl)cc2Cl)CC1`, under setting [1], the AC50 was 3.16 µM [rising, full curve].
With `NC(=O)c1ccccc1-c1noc(-c2ccccc2F)n1`, under setting [1], the concentration at half-maximal activity (AC50) was 2.91 µM [rising, partial curve, poor fit].
As to `O=C(CCCn1c(=S)[nH]c2ccccc2c1=O)NCCSCc1ccccc1`, the concentration at half-maximal activity (AC50) under setting [1] is 6.31 µM [falling, single point].
For the compound `O=C(CSc1nc2ccccc2c(=O)n1-c1ccccc1F)NC1CC1`, the AC50 was 13 µM [rising, partial curve, poor fit] under setting [1] and 18.4 µM [falling, partial curve] under setting [2].
For `CCOC(=O)n1n[n+]([O-])c2ccccc21`, under setting [1], the AC50 was 2.06 µM [rising, partial curve, poor fit].
Still for that read-out and setting: the value for `Cc1cc(C)nc(N2CCC(C(=O)Nc3nnc(C)s3)CC2)n1` was 35.5 µM [rising, single point].
Same read-out and setting: in the case of `COc1ccc(-c2n[nH]c(=S)n2/N=C/C=C\c2ccccc2OC)cc1` it was 9.2 µM [falling, partial curve, poor fit].
For `CSc1cccc(Nc2cc(C(=O)NCCCN(Cc3ccccc3)C(C)C)c3ccccc3n2)c1`, under setting [1], the AC50 was 35.5 µM [falling, single point].
`CN(C)c1ccc(/C=C2/NC(=O)NC2=O)cc1`: the concentration at half-maximal activity (AC50) under setting [1] was 6.51 µM [rising, single point].
Still for that read-out and setting: in the case of `Cc1ccc(Oc2ncccc2COC(=O)Nc2ccccc2C)cc1` it was 0.1 µM [falling, full curve, poor fit]; in that of `Cc1c(C(=O)C(C)C)n(C)c2ccccc12`, 10 µM [rising, partial curve, poor fit].
Consider `Cc1ccc(C(=O)Nc2ccc3c(c2)OCCO3)o1`, for which the AC50 under setting [1] is 6.51 µM [rising, single point].
As to `CCOc1cc(-c2cc(-c3ccc(NC(C)=O)cc3)nc(N)c2C#N)ccc1O`, the half-maximal activity concentration (AC50) is 15.8 µM [rising, partial curve, poor fit] under setting [1] and 11.2 µM [falling, partial curve] under setting [2].

These data come from PubChem BioAssay AID493014 (National Center for Advancing Translational Sciences (NCATS), 2011).
